One molecule from article PMC9687583 can be followed below.

These are yes or no findings as the source states them, for the method shown. Some binding calls cover weakened binding; strength is not graded here.

The target in this test is T1, Human C-C motif ligand 16 (CCL16) (human), O15467.
T1 chain: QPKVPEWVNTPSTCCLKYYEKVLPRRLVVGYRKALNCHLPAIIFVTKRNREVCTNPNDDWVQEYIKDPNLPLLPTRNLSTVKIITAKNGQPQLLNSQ
The test is described as follows: crystal structure; sitting drop, 293 K, 1.6 M sodium citrate pH 6.5; space group C2, two chains per asymmetric unit; 1.45 Å; both purified. Conditions: remark: other sources report otherwise.

B1: Human C-C motif ligand 16 (CCL16), O15467 24-120 (natural protein)
chain: QPKVPEWVNTPSTCCLKYYEKVLPRRLVVGYRKALNCHLPAIIFVTKRNREVCTNPNDDWVQEYIKDPNLPLLPTRNLSTVKIITAKNGQPQLLNSQ
modifications: here or on the partner: two intramolecular disulphide bonds (confirmed by CE-MS and electron density); two intramolecular disulphide bonds (confirmed by CE-MS and electron density)
With B1, the binding result was “binds”.
